Measured values published in doi:10.1101/2021.10.22.465432 (bioRxiv, 2021).
These are yes or no findings as the source states them, for the method shown. In cells and extracts the contact can be indirect. These calls come from enrichment with a bait or labelling near it, and not all partners need be listed.

Amino acid sequences for entries named in this document (tags omitted).
UniProt Q80YR5: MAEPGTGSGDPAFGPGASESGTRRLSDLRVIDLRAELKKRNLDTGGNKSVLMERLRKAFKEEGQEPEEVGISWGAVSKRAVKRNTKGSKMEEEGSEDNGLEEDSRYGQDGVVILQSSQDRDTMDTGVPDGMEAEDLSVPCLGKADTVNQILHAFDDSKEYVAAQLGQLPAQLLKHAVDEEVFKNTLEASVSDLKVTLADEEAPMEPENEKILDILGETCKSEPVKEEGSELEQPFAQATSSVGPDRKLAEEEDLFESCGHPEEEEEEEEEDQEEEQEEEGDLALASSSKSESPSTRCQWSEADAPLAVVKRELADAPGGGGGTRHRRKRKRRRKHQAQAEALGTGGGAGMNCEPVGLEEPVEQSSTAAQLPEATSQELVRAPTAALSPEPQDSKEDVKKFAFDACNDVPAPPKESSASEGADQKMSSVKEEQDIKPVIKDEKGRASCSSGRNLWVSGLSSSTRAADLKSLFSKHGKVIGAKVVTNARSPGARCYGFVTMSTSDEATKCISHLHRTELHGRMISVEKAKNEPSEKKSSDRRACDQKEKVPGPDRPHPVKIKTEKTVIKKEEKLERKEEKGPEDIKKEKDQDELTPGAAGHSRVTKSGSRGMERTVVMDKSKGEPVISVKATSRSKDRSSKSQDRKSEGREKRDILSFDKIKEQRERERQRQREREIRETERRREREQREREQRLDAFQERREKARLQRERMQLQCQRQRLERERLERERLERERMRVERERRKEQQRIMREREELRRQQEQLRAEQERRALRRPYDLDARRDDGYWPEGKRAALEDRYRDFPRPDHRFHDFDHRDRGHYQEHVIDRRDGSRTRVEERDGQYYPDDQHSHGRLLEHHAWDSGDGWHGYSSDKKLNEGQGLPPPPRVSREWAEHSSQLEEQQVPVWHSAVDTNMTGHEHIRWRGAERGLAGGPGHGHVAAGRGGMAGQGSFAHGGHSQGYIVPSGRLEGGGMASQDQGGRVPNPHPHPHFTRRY
UniProt Q60749: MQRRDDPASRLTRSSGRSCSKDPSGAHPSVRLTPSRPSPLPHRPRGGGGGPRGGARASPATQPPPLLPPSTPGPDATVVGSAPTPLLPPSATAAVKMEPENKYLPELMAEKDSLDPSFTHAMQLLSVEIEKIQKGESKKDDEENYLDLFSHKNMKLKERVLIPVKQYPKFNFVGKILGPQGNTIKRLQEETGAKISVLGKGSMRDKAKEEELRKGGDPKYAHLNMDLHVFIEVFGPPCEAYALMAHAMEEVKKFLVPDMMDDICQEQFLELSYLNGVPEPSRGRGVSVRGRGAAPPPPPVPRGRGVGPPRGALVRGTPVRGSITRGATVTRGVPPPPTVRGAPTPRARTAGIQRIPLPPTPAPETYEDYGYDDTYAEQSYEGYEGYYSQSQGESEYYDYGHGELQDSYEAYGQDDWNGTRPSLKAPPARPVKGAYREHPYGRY
UniProt Q921F2: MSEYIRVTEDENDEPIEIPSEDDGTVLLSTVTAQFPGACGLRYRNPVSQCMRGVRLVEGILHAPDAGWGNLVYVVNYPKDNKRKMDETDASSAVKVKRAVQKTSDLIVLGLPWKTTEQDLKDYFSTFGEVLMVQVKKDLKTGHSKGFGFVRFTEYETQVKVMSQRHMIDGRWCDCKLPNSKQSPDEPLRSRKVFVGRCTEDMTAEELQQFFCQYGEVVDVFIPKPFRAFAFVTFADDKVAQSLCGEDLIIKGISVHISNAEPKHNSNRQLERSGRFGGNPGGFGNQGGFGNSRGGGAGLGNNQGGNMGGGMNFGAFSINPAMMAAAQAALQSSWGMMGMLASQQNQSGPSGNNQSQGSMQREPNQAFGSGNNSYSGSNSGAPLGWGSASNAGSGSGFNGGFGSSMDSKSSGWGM
UniProt Q501J6: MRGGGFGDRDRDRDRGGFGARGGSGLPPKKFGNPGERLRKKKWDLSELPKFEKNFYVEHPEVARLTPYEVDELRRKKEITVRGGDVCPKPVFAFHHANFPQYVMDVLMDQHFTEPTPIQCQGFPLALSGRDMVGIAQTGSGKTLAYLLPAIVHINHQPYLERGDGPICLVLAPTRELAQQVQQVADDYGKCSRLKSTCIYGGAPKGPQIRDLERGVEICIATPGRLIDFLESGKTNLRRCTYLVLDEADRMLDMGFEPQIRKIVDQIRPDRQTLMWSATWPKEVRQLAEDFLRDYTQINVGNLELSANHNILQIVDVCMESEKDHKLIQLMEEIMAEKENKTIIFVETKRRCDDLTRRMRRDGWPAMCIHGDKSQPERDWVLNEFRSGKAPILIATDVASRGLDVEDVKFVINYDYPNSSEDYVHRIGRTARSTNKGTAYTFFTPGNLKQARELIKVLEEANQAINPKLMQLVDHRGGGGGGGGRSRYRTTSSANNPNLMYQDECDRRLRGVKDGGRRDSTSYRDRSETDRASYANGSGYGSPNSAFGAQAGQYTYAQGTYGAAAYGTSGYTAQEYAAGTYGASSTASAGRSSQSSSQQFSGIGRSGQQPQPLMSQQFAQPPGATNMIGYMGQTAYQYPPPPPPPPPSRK
UniProt O70133: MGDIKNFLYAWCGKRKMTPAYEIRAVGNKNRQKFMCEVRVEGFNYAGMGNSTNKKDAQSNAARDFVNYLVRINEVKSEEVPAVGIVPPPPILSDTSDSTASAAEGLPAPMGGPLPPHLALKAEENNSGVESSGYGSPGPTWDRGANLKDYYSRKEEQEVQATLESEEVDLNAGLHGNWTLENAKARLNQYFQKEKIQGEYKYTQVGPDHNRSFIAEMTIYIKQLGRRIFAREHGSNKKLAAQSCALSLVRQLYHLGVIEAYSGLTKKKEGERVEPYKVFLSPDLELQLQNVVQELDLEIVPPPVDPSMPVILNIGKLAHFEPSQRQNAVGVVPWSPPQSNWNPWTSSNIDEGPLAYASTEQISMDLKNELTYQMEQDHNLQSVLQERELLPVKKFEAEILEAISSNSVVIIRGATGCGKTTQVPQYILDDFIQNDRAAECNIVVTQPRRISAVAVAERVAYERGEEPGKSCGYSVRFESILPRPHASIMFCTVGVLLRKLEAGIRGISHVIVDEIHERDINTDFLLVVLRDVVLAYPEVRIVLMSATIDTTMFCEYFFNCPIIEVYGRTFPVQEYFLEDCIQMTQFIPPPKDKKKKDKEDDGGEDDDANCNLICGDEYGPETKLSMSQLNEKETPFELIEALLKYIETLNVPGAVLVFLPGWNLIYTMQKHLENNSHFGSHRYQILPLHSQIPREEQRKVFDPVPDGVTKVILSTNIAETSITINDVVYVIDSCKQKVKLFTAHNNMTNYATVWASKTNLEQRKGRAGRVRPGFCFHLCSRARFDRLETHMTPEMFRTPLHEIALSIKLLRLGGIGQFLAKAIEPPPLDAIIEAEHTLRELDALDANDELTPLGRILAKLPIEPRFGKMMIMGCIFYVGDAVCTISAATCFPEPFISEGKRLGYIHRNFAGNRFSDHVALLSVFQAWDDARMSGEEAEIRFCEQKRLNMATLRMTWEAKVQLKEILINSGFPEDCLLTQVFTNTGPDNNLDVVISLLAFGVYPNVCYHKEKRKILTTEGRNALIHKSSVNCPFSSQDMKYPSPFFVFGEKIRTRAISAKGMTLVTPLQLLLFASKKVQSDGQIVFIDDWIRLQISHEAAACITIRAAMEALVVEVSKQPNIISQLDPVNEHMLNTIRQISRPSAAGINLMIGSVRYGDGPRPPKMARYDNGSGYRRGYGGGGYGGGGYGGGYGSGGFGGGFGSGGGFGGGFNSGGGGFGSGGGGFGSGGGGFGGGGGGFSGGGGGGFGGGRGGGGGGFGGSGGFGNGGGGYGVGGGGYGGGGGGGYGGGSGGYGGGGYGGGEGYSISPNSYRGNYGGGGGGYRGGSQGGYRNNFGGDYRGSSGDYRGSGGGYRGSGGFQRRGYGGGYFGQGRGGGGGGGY
UniProt Q8VEK3: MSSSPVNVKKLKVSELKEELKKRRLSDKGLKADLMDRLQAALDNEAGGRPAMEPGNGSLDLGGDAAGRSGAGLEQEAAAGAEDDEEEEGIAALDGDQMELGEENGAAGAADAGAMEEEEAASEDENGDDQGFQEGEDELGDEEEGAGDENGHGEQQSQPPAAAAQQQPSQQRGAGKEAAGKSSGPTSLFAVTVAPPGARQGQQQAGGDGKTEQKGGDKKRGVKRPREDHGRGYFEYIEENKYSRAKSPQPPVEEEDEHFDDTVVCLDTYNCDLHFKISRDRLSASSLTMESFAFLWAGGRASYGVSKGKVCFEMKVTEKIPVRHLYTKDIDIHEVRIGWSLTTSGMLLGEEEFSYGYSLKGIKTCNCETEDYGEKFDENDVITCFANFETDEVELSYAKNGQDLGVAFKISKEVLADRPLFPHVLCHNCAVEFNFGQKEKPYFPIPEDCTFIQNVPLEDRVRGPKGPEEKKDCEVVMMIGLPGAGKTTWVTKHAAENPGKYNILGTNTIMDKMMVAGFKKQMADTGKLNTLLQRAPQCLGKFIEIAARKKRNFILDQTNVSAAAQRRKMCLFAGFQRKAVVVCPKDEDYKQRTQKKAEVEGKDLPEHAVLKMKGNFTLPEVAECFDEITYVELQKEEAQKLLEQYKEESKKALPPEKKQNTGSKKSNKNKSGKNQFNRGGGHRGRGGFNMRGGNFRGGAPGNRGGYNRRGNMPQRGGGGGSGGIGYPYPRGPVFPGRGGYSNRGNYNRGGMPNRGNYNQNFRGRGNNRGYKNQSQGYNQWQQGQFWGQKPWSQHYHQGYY
UniProt Q9WVA3: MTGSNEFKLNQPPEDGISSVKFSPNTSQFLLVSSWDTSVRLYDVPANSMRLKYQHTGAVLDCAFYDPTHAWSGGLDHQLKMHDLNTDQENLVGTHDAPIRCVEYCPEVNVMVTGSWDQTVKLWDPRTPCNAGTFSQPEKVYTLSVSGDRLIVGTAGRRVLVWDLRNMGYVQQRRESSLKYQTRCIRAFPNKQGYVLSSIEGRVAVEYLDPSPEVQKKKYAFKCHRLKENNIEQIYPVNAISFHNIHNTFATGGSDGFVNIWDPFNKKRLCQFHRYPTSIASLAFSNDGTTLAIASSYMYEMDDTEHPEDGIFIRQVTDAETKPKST
UniProt D3YXK2: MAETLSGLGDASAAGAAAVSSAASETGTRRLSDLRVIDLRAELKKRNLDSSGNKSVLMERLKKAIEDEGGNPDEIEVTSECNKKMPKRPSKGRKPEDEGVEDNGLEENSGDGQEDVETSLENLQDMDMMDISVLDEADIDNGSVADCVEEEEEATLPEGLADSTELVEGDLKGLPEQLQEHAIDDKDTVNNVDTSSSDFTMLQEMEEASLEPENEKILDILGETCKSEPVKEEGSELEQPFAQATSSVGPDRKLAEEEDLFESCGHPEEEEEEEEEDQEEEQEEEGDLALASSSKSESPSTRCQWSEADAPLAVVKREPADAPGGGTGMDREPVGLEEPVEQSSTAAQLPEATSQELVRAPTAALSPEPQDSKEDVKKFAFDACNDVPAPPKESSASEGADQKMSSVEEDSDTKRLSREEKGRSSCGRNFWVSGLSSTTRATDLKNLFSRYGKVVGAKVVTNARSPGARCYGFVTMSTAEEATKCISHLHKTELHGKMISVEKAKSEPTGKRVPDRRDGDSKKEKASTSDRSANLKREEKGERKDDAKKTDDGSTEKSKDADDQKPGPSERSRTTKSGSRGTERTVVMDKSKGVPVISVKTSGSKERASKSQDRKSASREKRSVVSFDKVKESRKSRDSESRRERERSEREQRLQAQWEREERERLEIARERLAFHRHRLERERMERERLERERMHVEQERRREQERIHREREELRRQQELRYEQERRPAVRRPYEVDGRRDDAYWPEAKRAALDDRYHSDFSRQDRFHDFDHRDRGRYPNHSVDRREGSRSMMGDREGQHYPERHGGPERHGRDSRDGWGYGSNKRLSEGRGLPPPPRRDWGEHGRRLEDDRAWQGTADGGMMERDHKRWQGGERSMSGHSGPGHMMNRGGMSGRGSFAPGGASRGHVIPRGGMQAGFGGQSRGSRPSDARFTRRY
UniProt O88569: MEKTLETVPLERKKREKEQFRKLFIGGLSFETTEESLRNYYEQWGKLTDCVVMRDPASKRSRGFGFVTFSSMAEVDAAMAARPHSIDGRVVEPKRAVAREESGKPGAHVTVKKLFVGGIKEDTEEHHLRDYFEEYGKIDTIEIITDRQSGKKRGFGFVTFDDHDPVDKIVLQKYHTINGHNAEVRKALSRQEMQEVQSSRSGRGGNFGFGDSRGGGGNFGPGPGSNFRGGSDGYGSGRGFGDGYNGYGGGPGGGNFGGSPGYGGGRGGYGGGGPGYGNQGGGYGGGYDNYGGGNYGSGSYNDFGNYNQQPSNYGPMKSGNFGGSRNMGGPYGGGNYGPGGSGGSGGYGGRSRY

T1: Drosha (mouse (endogenous in DG NSCs)) (UniProt Q5HZJ0)
T1 sequence: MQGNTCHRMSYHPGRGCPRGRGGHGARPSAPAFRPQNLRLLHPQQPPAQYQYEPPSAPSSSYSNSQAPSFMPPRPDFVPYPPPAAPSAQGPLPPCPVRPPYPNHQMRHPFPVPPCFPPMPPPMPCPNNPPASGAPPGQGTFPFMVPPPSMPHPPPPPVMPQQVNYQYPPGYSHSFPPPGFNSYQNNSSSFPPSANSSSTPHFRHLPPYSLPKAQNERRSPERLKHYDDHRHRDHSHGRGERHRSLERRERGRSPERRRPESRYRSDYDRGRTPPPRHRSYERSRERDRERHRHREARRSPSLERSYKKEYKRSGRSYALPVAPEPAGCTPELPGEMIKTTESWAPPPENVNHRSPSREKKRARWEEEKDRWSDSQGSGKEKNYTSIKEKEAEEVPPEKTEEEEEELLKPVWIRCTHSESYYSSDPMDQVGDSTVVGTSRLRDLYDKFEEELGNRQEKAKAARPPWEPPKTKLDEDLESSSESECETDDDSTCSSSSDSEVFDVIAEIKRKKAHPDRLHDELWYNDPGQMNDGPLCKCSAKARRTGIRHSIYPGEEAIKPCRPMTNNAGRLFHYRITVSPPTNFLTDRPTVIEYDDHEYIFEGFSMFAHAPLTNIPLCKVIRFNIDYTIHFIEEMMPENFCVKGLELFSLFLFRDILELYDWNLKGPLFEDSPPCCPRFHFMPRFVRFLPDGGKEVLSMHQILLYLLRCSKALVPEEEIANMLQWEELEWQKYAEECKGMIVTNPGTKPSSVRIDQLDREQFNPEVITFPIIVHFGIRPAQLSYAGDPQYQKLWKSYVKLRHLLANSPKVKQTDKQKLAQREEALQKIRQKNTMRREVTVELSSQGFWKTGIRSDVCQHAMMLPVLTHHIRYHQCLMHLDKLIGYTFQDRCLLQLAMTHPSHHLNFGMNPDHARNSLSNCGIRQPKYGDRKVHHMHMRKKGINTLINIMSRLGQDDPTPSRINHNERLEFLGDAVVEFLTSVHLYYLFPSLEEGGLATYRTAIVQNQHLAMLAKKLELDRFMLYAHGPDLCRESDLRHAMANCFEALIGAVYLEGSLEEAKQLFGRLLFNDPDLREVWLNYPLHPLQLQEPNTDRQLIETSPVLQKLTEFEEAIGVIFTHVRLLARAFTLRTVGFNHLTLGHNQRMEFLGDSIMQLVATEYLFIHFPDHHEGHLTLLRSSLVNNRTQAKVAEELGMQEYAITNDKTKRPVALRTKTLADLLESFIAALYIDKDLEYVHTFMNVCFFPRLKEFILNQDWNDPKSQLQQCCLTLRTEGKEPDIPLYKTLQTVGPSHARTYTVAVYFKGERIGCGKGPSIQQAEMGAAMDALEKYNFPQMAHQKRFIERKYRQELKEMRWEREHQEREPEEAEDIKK

B1: Khsrp (protein, UniProt Q3U0V1 1-748)
chain: MSDYNTGGPPPGPPPPAGGGGGAAGAGGGPPPGPPGAGDRGGGGPGGGGPGGGGASGGPSQPPGGGGPGIRKDAFADAVQRARQIAAKIGGDAATTVNNNTPDFGFGGQKRQLEDGDQPDSKKLASQGDSIGSQLGPIHPPPRTSMTEEYRVPDGMVGLIIGRGGEQINKIQQDSGCKVQISPDSGGLPERSVSLTGAPESVQKAKMMLDDIVSRGRGGPPGQFHDNANGGQNGTVQEIMIPAGKAGLVIGKGGETIKQLQERAGVKMILIQDGSQNTNVDKPLRIIGDPYKVQQACEMVMDILRERDQGGFGDRNEYGSRVGGGIDVPVPRHSVGVVIGRSGEMIKKIQNDAGVRIQFKQDDGTGPEKIAHIMGPPDRCEHAARIINDLLQSLRSGPPGPPGAPGMPPGGRGRGRGQGNWGPPGGEMTFSIPTHKCGLVIGRGGENVKAINQQTGAFVEISRQLPPNGDPNFKLFVIRGSPQQIDHAKQLIEEKIEGPLCPVGPGPGGPGPAGPMGPFNPGPFNQGPPGAPPHAGGPPPHQYPPQGWGNTYPQWQPPAPHDPNKAAAAATDPNAAWAAYYSHYYQQPPGPVPGPAPAPAAPPAQGEPPQPPPTGQSDYTKAWEEYYKKIGQQPQQPGAPPQQDYTKAWEEYYKKQAQVATGGGPGAPPGSQPDYSAAWAEYYRQQAAYYGQTPGPGGPQPPPTQQGQQQASGNCHPPPPPFSFQPPATVHPALVGSAGNPFPCGVCP
B2: Pabpn1 (protein, UniProt Q8CCS6 1-302)
chain: MAAAAAAAAAAGAAGGRGSGPGRRRHLVPGAGGEAGEGDPGGAGDYGNGLESEELEPGELLPEPEPEEEPPRPRAPPGAPGPGPGSGAPGSQEEEEEPGLVEADPGDGAIEDPELEAIKARVREMEEEAEKLKELQNEVEKQMNMSPPPGNAGPVIMSLEEKMEADARSIYVGNVDYGATAEELEAHFHGCGSVNRVTILCDKFSGHPKGFAYIEFSDKESVRTSLALDESLFRGRQIKVIPKRTNRPGISTTDRGFPRSRYRARTTNYNSSRSRFYSGFNSRPRGRIYRGRARATSWYSPY
B3: Prpf6 (protein, UniProt Q91YR7 1-941)
chain: MNKKKKPFLGMPAPLGYVPGLGRGATGFTTRSDIGPARDANDPVDDRHAPPGKRTVGDQMKKNQAADDDDEDLNDTNYDEFNGYAGSLFSSGPYEKDDEEADAIYAALDKRMDERRKERREQREKEEIEKYRMERPKIQQQFSDLKRKLAEVTEEEWLSIPEVGDARNKRQRNPRYEKLTPVPDSFFAKHLQTGENHTSVDPRQTQFGGLNTPYPGGLNTPYPGGMTPGLMTPGTGELDMRKIGQARNTLMDMRLSQVSDSVSGQTVVDPKGYLTDLNSMIPTHGGDINDIKKARLLLKSVRETNPHHPPAWIASARLEEVTGKLQVARNLIMKGTEMCPKSEDVWLEAARLQPGDTAKAVVAQAVRHLPQSVRIYIRAAELETDIRAKKRVLRKALEHVPNSVRLWKAAVELEEPEDARIMLSRAVECCPTSVELWLALARLETYENARKVLNKARENIPTDRHIWITAAKLEEANGNTQMVEKIIDRAITSLRANGVEINREQWIQDAEECDRAGSVATCQAVMRAVIGIGIEEEDRKHTWMEDADSCVAHNALECARAIYAYALQVFPSKKSVWLRAAYFEKNHGTRESLEALLQRAVAHCPKAEVLWLMGAKSKWLAGDVPAARSILALAFQANPNSEEIWLAAVKLESENNEYERARRLLAKARSSAPTARVFMKSVKLEWVLGNISAAQELCEEALRHYEDFPKLWMMKGQIEEQGELMEKAREAYNQGLKKCPHSTPLWLLLSRLEEKIGQLTRARAILEKSRLKNPKNPGLWLESVRLEYRAGLKNIANTLMAKALQECPNSGILWSEAVFLEARPQRKTKSVDALKKCEHDPHVLLAVAKLFWSERKITKAREWFHRTVKIDSDLGDAWAFFYKFELQHGTEEQQEEVRKRCENAEPRHGELWCAVSKDITNWQRKIGEILVLVAARIKNTF
B4: Sart1 (protein, UniProt Q9Z315 1-806)
chain: MGSSKKHRGEKEAAGTTAAAGTGGTTEQPPRHREHKKHKHRSSGGGSSGGERRKRSRERGSERGSGRRGAEAEARSGAHGRERSQAEPSERRVKREKRDDGYEAAASSKASSGDASSLSIEETNKLRAKLGLKPLEVNAVKKEAGTKEEPVAADVINPMALRQREELREKLAAAKEKRLLNQKLGKIKTLGEDDPWLDDTAAWIERSRQLQKEKDLAEKRAKLLEEMDQEFGVSTLVEEEFEQRRQDLYSARDLQGLTVEHAIDSFREGETVVLTLKDKGVLQDGEDVLVNVNMVDKERADKNVELRKKKPDYLPYAEDESVDDLAQQKPRSILAKYDEELEGERPHSFRLEQGGMADGLRERELEEIRTKLRLQAQSLSSVGPRLASEYLSPEEMVTFKKTKRRVKKIRKKEKEVIMRADDLLPLGDQTQDGDFGSRLRGRGRRRVPEVEEEALEDEEKDPVAQPPPSDDTRVENMDISDEEDGGALPPGSPEGLEEDEAELELQKQLEKGRRLRQLQQLQQLRDSGEKVLEIVKKLESRQRGWEEEEDPERKGTIVFNATSEFCRTLGEIPTYGLAGNREEQEELMDFERDEERSANGGSESDGEENIGWSTVNLDEEKQHQDFSASSTTILDEEPIVNRGLAAALLLCQNKGLLETTVQKVARVKAPNKSLPSAVYCIEDKMAIDDKYSRREEYRGFTQDFKEKDGYKPDVKIEYVDETGRKLTPKEAFRQLSHRFHGKGSGKMKTERRMKKLDEEALLKKMSSSDTPLGTVALLQEKQKAQKTPYIVLSGSGKSMNANTITK
B5: Sf1 (protein, UniProt Q64213 1-653)
chain: MATGANATPLDFPSKKRKRSRWNQDTMEQKTVIPGMPTVIPPGLTREQERAYIVQLQIEDLTRKLRTGDLGIPPNPEDRSPSPEPIYNSEGKRLNTREFRTRKKLEEERHTLITEMVALNPDFKPPADYKPPATRVSDKVMIPQDEYPEINFVGLLIGPRGNTLKNIEKECNAKIMIRGKGSVKEGKVGRKDGQMLPGEDEPLHALVTANTMENVKKAVEQIRNILKQGIETPEDQNDLRKMQLRELARLNGTLREDDNRILRPWQSSETRSITNTTVCTKCGGAGHIASDCKFQRPGDPQSAQDKARMDKEYLSLMAELGEAPVPASVGSTSGPATTPLASAPRPAAPASNPPPPSLMSTTQSRPPWMNSGPSENRPYHGMHGGGPGGPGGGPHSFPHPLPSLTGGHGGHPMQHNPNGPPPPWMQPPPPPMNQGPHPPGHHGPPPMDQYLGSTPVGSGVYRLHQGKGMMPPPPMGMMPPPPPPPSGQPPPPPSGPLPPWQQQQQQPPPPPPPSSSMASSTPLPWQQNTTTTTTSAGTGSIPPWQQQQAAAAASPGTPQMQGNPTMVPLPPGVQPPLPPGAPPPPPCSIECLLCLLSSPNSLCLSPNRAARIPPRGSDGPSHESEDFPRPLVTLPGRQPQQRPWWTGWFGKAA

Target: T1, Drosha (mouse (endogenous in DG NSCs))
Assay: affinity purification with mass spectrometry

binding, binds:
Safb2 (from UniProt Q80YR5 1-991)
Sam68 (from UniProt Q60749 1-443)
TDP-43 (from UniProt Q921F2 1-414)
Ddx17 (from UniProt Q501J6 1-650)
Dhx9 (from UniProt O70133 1-1380)
Hnrnpu (from UniProt Q8VEK3 1-800)
Bub3 (from UniProt Q9WVA3 1-326)
Scaffold Attachment Factor B1 (Safb1) (from UniProt D3YXK2 1-937)
Hnrnpa2b1 (from UniProt O88569 1-353)
B1
B2
B3
B4
B5
